The list does not hold the whole screen: its compounds were picked by chemical class. Other doses and runs of a compound may be missing. T/C is the treated group as % of the vehicle group. Some entries give survivors of the animals treated and no T/C: the source files T/C as zero there, which appears to mark a toxic dose or a test without result, not a measured value. Some survivor counts are full or nearly so, which does not show that the dose was tolerated: survival well below the control is almost never listed, so the zero probably covers shortened survival too. Survivors were counted at the toxicity check, usually on the fifth day, unless a day is given; later deaths do not show. Schedule codes are those of the source, taken here to give the interval after Q, in days (D) or hours (H), and the number of doses after X. Where survival is the endpoint, this PubChem deposit counts one and a half times the control or more as active, and values a quarter to a half above the control carry no call in these data; other NCI protocols may use other cut-offs. Some doses were run more than once; their values stand side by side, smallest first. Some T/C values are followed by the survivors on the day toxicity was checked, most often the fifth; without a count or a note in brackets, all were alive then.

Results on five compounds are retold here after PubChem BioAssay AID328 (DTP/NCI, 2004).

The test has as its system BDF1 mice, P388 leukemia ip, median survival T/C. Nature of the test: NCI In Vivo Anticancer Drug Screen. Data for tumor model P388 Leukemia (intraperitoneal) in B6D2F1 (BDF1) mice. The following applies: T/C endpoint: median survival time, higher T/C = longer survival. The method in brief: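 Compound-treated tumour-bearing mice were compared with vehicle-treated controls. Survival was recorded, and the value is the treated-group measurement divided by the control-group measurement (T/C).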

On to `Nc1ccc(CCCCc2cccc(S(=O)(=O)F)c2)c(Cl)c1.O=[N+]([O-])c1cc([N+](=O)[O-])c(O)c([N+](=O)[O-])c1`, for which the T/C (dose: 25.0 mg/kg/injection, schedule: Q04DX003 (ip), vehicle: Klucel (hydroxypropylcellulose) (HPC)) was 95 % of control; the T/C (dose: 50.0 mg/kg/injection, schedule: Q04DX003 (ip), vehicle: Klucel (hydroxypropylcellulose) (HPC)) was 90 % of control; the T/C (dose: 56.0 mg/kg/injection, schedule: Q01DX009 (ip), vehicle: saline) is 95 % of control; the T/C (dose: 100.0 mg/kg/injection, schedule: Q04DX003 (ip), vehicle: Klucel (hydroxypropylcellulose) (HPC)) is 95 % of control; the T/C (dose: 112.0 mg/kg/injection, schedule: Q01DX009 (ip), vehicle: saline) was 115 % of control; the T/C (dose: 150.0 mg/kg/injection, schedule: Q01DX009 (ip), vehicle: Klucel (hydroxypropylcellulose) (HPC)) is 109 % of control. In addition, the T/C is 95 % of control (dose: 150.0 mg/kg/injection, schedule: Q01DX009 (ip), vehicle: saline); 115 % of control (dose: 150.0 mg/kg/injection, schedule: Q04DX003 (ip), vehicle: Klucel (hydroxypropylcellulose) (HPC)); 109 and 130 % of control (dose: 225.0 mg/kg/injection, schedule: Q01DX009 (ip), vehicle: saline); 120 % of control (dose: 225.0 mg/kg/injection, schedule: Q04DX003 (ip), vehicle: Klucel (hydroxypropylcellulose) (HPC)). The survivor count (dose: 225.0 mg/kg/injection, schedule: Q01DX009 (ip), vehicle: Klucel (hydroxypropylcellulose) (HPC)) is recorded as 6 of 6; the survivor count (dose: 335.0 mg/kg/injection, schedule: Q01DX009 (ip), vehicle: Klucel (hydroxypropylcellulose) (HPC)) is given as 6 of 6; the survivor count (dose: 335.0 mg/kg/injection, schedule: Q01DX009 (ip), vehicle: saline) is 3 of 6; the survivor count (dose: 335.0 mg/kg/injection, schedule: Q04DX003 (ip), vehicle: Klucel (hydroxypropylcellulose) (HPC)) is given as 6 of 6.

Consider `ClCCNCCCCCNCCCl`, for which the T/C by setting is: (dose: 132.0 mg/kg/injection, schedule: Q04DX003 (ip), vehicle: saline) 177 % of control; (dose: 200.0 mg/kg/injection, schedule: Q04DX003 (ip), vehicle: saline) 209 % of control; (dose: 300.0 mg/kg/injection, schedule: Q04DX003 (ip), vehicle: saline) 227 % of control.

On to `NP1(=O)C=CNC(=O)N1` (stereo not drawn), for which the T/C by setting is: (dose: 50.0 mg/kg/injection, schedule: Q01DX001 (ip), vehicle: saline) 100 % of control; (dose: 100.0 mg/kg/injection, schedule: Q01DX001 (ip), vehicle: saline) 101 % of control; (dose: 200.0 mg/kg/injection, schedule: Q01DX001 (ip), vehicle: saline) 106 % of control; (dose: 400.0 mg/kg/injection, schedule: Q01DX001 (ip), vehicle: saline) 93 % of control.

Regarding `O=C(O)Cc1ccc(N(CCCl)CCCl)cc1`, the T/C runs as follows: (dose: 4.0 mg/kg/injection, schedule: Q04DX003 (ip), vehicle: saline with Tween-80) 140 % of control; (dose: 4.12 mg/kg/injection, schedule: Q04DX003 (ip), vehicle: saline with Tween-80) 145 % of control; (dose: 6.0 mg/kg/injection, schedule: Q04DX003 (ip), vehicle: saline with Tween-80) 150 % of control; (dose: 6.25 mg/kg/injection, schedule: Q04DX003 (ip), vehicle: saline with Tween-80) 190 % of control; (dose: 9.0 mg/kg/injection, schedule: Q04DX003 (ip), vehicle: saline with Tween-80) 154 % of control; (dose: 9.3 mg/kg/injection, schedule: Q04DX003 (ip), vehicle: saline with Tween-80) 190 % of control. The survivor count by setting is: (dose: 100.0 mg/kg/injection, schedule: Q04DX003 (ip), vehicle: saline with Tween-80) 1 of 6; (dose: 200.0 mg/kg/injection, schedule: Q04DX003 (ip), vehicle: saline with Tween-80) 0 of 6; (dose: 400.0 mg/kg/injection, schedule: Q04DX003 (ip), vehicle: saline with Tween-80) 0 of 6.

For the compound `ClC1(Cl)SC(Cl)(Cl)C(Cl)(Cl)C1(Cl)Cl`, the T/C by setting is: (dose: 3.12 mg/kg/injection, schedule: Q01DX009 (ip), vehicle: Klucel (hydroxypropylcellulose) (HPC)) 118 % of control; (dose: 6.25 mg/kg/injection, schedule: Q01DX009 (ip), vehicle: Klucel (hydroxypropylcellulose) (HPC)) 86 % of control [5 of 6 alive]; (dose: 8.2 mg/kg/injection, schedule: Q01DX009 (ip), vehicle: Klucel (hydroxypropylcellulose) (HPC)) 122 % of control; (dose: 12.5 mg/kg/injection, schedule: Q01DX009 (ip), vehicle: Klucel (hydroxypropylcellulose) (HPC)) 133 and 145 % of control; (dose: 18.0 mg/kg/injection, schedule: Q01DX009 (ip), vehicle: Klucel (hydroxypropylcellulose) (HPC)) 127 % of control; (dose: 50.0 mg/kg/injection, schedule: Q01DX009 (ip), vehicle: Klucel (hydroxypropylcellulose) (HPC)) 86 % of control. Also, where the note is “dose: 100.0 mg/kg/injection, schedule: Q01DX009 (ip), vehicle: Klucel (hydroxypropylcellulose) (HPC)”, the T/C was 90 % of control. Besides, the survivor count (dose: 25.0 mg/kg/injection, schedule: Q01DX009 (ip), vehicle: Klucel (hydroxypropylcellulose) (HPC)) was 5 of 6.
